Laboratory results published in PubChem BioAssay AID540276 (National Center for Advancing Translational Sciences (NCATS), 2011).
The campaign covered roughly 300,000 compounds. About 5,400 (1.8%) were called active. This list was built around the results that the source calls inconclusive (neither active nor inactive); the mix of calls is not that of the screen. Calls follow the shape of the full dose curve; tested in HEK293 cells. Potencies of inconclusive entries are doubtful fits and often do not repeat.

Assay: qHTS for inhibitors of binding or entry into cells for Marburg Virus
Conditions: Marburg virus pseudotyped entry inhibition, cell reporter; activity change, negative = inhibition: at 37.8 µM (top of the series) unless noted
% is scaled to controls: 0 for no effect and ±100 for the full control effect; potency is read from the fitted curve at half-maximal effect.

Q: With `COC(=O)c1c(C)n(-c2ccc(OC)cc2)c2ccc(O)cc12` as the compound, how does the Potency read?
A: The Potency was inconclusive: 12.6 µM [inhibitor, single point].

Q: With `CCOC(=O)c1c(-c2ccc(OC)cc2)csc1NC(=O)C1CCCO1` (centres undefined) as the compound, how does the Potency read?
A: The Potency was “inactive”.

Q: For `O=C1C2C3c4ccccc4C(c4ccccc43)[C@@H]2C(=O)N1c1cccnc1` (some centres undefined), which Potency is on record?
A: Its Potency is inconclusive: 1.26 µM [inhibitor, single point].

Q: With `CCOC(=O)c1c(-c2ccc(F)cc2)csc1NC(=O)C1CC=CCC1C(=O)O` (centres undefined) as the compound, how does the “activity change, negative = inhibition” value read?
A: The value was inactive: -0.214% [at 46.1 µM].

Q: For `COc1cccc(C(O)c2cnc(C(C)C)n2C)c1OC` (centres undefined), which Potency is on record?
A: The Potency was inconclusive: 20.6 µM [activator, single point].

Q: With `COc1ccc(C2CC(C(F)(F)F)n3ncc(C(=O)Nc4c(C)n(C)n(-c5ccccc5)c4=O)c3N2)cc1` (centres undefined) as the compound, how does the “activity change, negative = inhibition” value read?
A: The value was inactive: 16.9%.

Q: Which “activity change, negative = inhibition” value does the source give for `Cc1cc(C)c2nc(NC3=NCN(CCN4CCOCC4)CN3)nc(C)c2c1` here?
A: Its value is inactive: 1.69%.

Q: Which “activity change, negative = inhibition” value does the source give for `COc1cccc(N2CCN(c3ccc4nnc(CCC(=O)O)n4n3)CC2)c1` here?
A: The value was inactive: -6.91% [at 46.1 µM].

Q: With `O=C(Nc1ccc(C(F)(F)F)cc1)c1ccc(NC(=O)C2CCCO2)cc1` (centres undefined) as the compound, how does the Potency read?
A: The Potency was inconclusive: 3.16 µM [inhibitor, full curve].

Q: With `Cc1ccccc1N1CCN(CCCN2C(=O)CC(=C(c3ccccc3)c3ccccc3)C2=O)CC1` as the compound, how does the “activity change, negative = inhibition” value read?
A: The value was inactive: -12.8%.

Q: With `COCC(C)n1c(SCc2cc(=O)n3cc(C)ccc3n2)nc2ccccc2c1=O` (centres undefined) as the compound, how does the Potency read?
A: The Potency was active: 5.01 µM.

Q: For `CN1CCN(/C=N/c2sc3c(c2C#N)CCCCC3)CC1`, which Potency is on record?
A: The Potency was inconclusive: 0.447 µM [activator, partial curve, poor fit].

Q: With `O=C(CSCc1ccccc1)NCCCN1CCOCC1` as the compound, how does the Potency read?
A: The Potency was inconclusive: 35.5 µM [activator, single point].

Q: For `O=C(NCc1n[nH]c(=S)n1-c1ccc(Cl)c(Cl)c1)c1cccs1`, which “activity change, negative = inhibition” value is on record?
A: Its value is inactive: -9.67% [at 46.1 µM].

Q: With `COc1ccc(OC)c(S(=O)(=O)NC2CCSc3ccccc32)c1` (centres undefined) as the compound, how does the “activity change, negative = inhibition” value read?
A: Its value is inactive: 1.52%.

Q: With `Nc1ccc2oc(C3CCCCC3)nc2c1` as the compound, how does the Potency read?
A: The Potency was inconclusive: 12.6 µM [activator, partial curve, poor fit].

Q: Which Potency does the source give for `CCn1c(=O)cc(OCC(=O)Nc2cc(OC)c(OC)c(OC)c2)c2ccccc21` here?
A: Its Potency is inconclusive: 6.31 µM [activator, single point].

Q: For `COc1ccc2c(c1)C=C([C@@H]1C[C@H]3CN(c4ccccc4)C(=O)[C@]34CCCN14)CO2`, which Potency is on record?
A: Its Potency is inconclusive: 10 µM [inhibitor, partial curve, poor fit].

Q: With `Cc1ccc(CNCC(O)(c2ccccc2)c2ccc(F)cc2)cc1` (centres undefined) as the compound, how does the Potency read?
A: The Potency was inconclusive: 35.5 µM [inhibitor, single point].

Q: Which Potency does the source give for `C=CCSc1nnc(NC(=O)c2cn(CC)c3nc(C)ccc3c2=O)s1` here?
A: Its Potency is inconclusive: 0.316 µM [inhibitor, full curve, poor fit].

Q: For `COc1ccc(-c2nc3ccccc3c(=O)n2CCOc2c(C)cccc2C)cc1`, which “activity change, negative = inhibition” value is on record?
A: Its value is inactive: 9.23% [at 46.1 µM].

Q: With `Cc1noc(C)c1C(=O)N1CCOCC1` as the compound, how does the Potency read?
A: The Potency was inconclusive: 2.82 µM [activator, partial curve, poor fit].

Q: For `O=C(CSc1cn[nH]n1)Nc1ccccc1C(F)(F)F`, which “activity change, negative = inhibition” value is on record?
A: Its value is inactive: 17.9% [at 46.1 µM].

Q: For `C=CCN(CC=C)Cc1cc(=O)oc2cc(C)c(C)cc12`, which Potency is on record?
A: Its Potency is inconclusive: 0.0016 µM [activator, full curve, poor fit].

Q: For `N#CC(Nc1ccccc1)c1ccccc1OCc1ccccc1` (centres undefined), which Potency is on record?
A: The Potency was inconclusive: 6.51 µM [inhibitor, single point].

Q: For `Cc1ccc(-c2nc(N)sc2-c2ccccc2)cc1C`, which Potency is on record?
A: The Potency was inconclusive: 32.6 µM [inhibitor, partial curve, poor fit].

Q: For `CCn1c(COc2c(C)cccc2C)nnc1SCC(=O)N1CCN(c2ccccc2)CC1`, which Potency is on record?
A: Its Potency is inconclusive: 2 µM [inhibitor, full curve, poor fit].

Q: Which “activity change, negative = inhibition” value does the source give for `O=C(Nc1c(C(=O)c2ccc(F)cc2)oc2ccccc12)c1cc(-c2ccccc2)on1` here?
A: The value was inactive: -5.38% [at 46.1 µM].

Q: For `Cc1cccc(NC(=S)NC(=O)Cc2ccccc2)c1C`, which “activity change, negative = inhibition” value is on record?
A: Its value is inactive: 11.3% [at 46.1 µM].

Q: For `Cc1cc(C(=O)COC(=O)c2ccc(NC(=O)CC#N)cc2)c(C)n1C1CC1`, which Potency is on record?
A: Its Potency is inconclusive: 1.41 µM [activator, partial curve, poor fit].

Q: For `COc1cc(NC(=O)CN2CCN(Cc3ccc4c(c3)OCO4)CC2)cc(OC)c1`, which Potency is on record?
A: Its Potency is inconclusive: 0.316 µM [activator, partial curve, poor fit].

Q: With `COc1ccc(Oc2ccc(/C=N/NC(=O)c3cccnc3)cc2[N+](=O)[O-])cc1` as the compound, how does the “activity change, negative = inhibition” value read?
A: The value was inactive: -28.7% [at 46.1 µM].

Q: With `COc1ccccc1CNC(=O)c1csc(Cc2ccc(Cl)cc2)n1` as the compound, how does the Potency read?
A: Its Potency is inconclusive: 0.708 µM [inhibitor, full curve, poor fit].

Q: With `COc1ccccc1C(=O)N/N=C/c1ccc2c(c1)OCO2` as the compound, how does the Potency read?
A: Its Potency is inconclusive: 12.6 µM [activator, single point].

Q: For `CCN(CC)S(=O)(=O)c1cc(NC(=O)CCNC(=O)c2ccccc2Cl)ccc1C`, which Potency is on record?
A: The Potency was inconclusive: 0.447 µM [activator, full curve, poor fit].

Q: For `CCCCCN(C(=O)COC(=O)CSc1ccc([N+](=O)[O-])cc1)c1c(N)n(CCCC)c(=O)[nH]c1=O`, which “activity change, negative = inhibition” value is on record?
A: Its value is inactive: -4.37% [at 46.1 µM].

Q: Which Potency does the source give for `CN(C)C(CNC(=O)c1c(F)cccc1Cl)c1ccco1` (centres undefined) here?
A: The Potency was inconclusive: 5.62 µM [inhibitor, single point].

Q: Which Potency does the source give for `CN(C)CCCN1C(=O)c2cccc3c([N+](=O)[O-])ccc(c23)C1=O` here?
A: Its Potency is active: 1.84 µM.

Q: For `CC(=O)Oc1ccc(-c2cccc(C(=O)OCC(=O)Nc3ccccc3Oc3ccccc3)c2)cc1`, which Potency is on record?
A: Its Potency is inconclusive: 35.5 µM [inhibitor, single point].

Q: Which Potency does the source give for `CCN(CC)S(=O)(=O)c1ccc2c(c1)N(CC(=O)Nc1ccc(F)cc1)C(=O)CO2` here?
A: Its Potency is inconclusive: 6.31 µM [activator, single point].

Q: Which Potency does the source give for `O=C(Nc1ccc(-c2nc3ccccc3o2)cc1)c1ccc(N2CCOCC2)c([N+](=O)[O-])c1` here?
A: Its Potency is inconclusive: 32.6 µM [inhibitor, single point].

Q: Which Potency does the source give for `Cc1ccc(S(=O)(=O)Nc2ccc(NC(=O)CN3CCCCC3)c(Cl)c2)cc1` here?
A: Its Potency is inconclusive: 6.51 µM [inhibitor, partial curve, poor fit].

Q: Which Potency does the source give for `COc1ccc(CCNC(=O)CCCCCn2c(SCC(N)=O)nc3cc4c(cc3c2=O)OCO4)cc1OC` here?
A: The Potency was inconclusive: 0.562 µM [inhibitor, full curve, poor fit].

Q: With `N=c1c(C(=O)NCc2ccc3c(c2)OCO3)cc2c(=O)n3ccccc3nc2n1Cc1cccnc1` as the compound, how does the Potency read?
A: The Potency was “inactive”.

Q: Which “activity change, negative = inhibition” value does the source give for `CCNC(=O)CN1C(=O)NC(Cc2ccccc2)(Cc2ccccc2)C1=O` here?
A: The value was inactive: 1.23%.

Q: For `N/C(=N\OC(=O)c1ccc(Cl)cc1[N+](=O)[O-])c1cccnc1`, which Potency is on record?
A: The Potency was inconclusive: 7.08 µM [activator, partial curve, poor fit].

Q: With `O=c1[nH]c2cc3c(cc2cc1CN(CC1CCCO1)S(=O)(=O)c1ccccc1)OCCO3` (centres undefined) as the compound, how does the “activity change, negative = inhibition” value read?
A: The value was inactive: -19.6%.

Q: For `O=C(Cn1cnc2c(oc3ccccc32)c1=O)NCCc1ccccc1`, which “activity change, negative = inhibition” value is on record?
A: The value was inactive: 10.7%.

Q: Which “activity change, negative = inhibition” value does the source give for `Cc1ccc2nc(N3C(=O)C(O)=C(C(=O)c4cc5ccccc5o4)C3c3cccs3)sc2c1` (centres undefined) here?
A: Its value is inactive: 2.74%.

Q: For `CSCc1ccc(C(=O)NCCSc2ccc(Br)cc2)cc1`, which Potency is on record?
A: The Potency was inconclusive: 20 µM [activator, partial curve, poor fit].

Q: Which “activity change, negative = inhibition” value does the source give for `CC(C(=O)NCCN1C(=O)S/C(=C\c2cccnc2)C1=O)N1C(=O)c2ccccc2C1=O` (centres undefined) here?
A: The value was inactive: 31.9%.

Q: Which Potency does the source give for `CC(=O)N[C@H](C(=O)O)C(C)(C)SN=O` here?
A: Its Potency is inconclusive: 29.1 µM [activator, partial curve, poor fit].

Q: With `Cc1ccc(-n2c(SCC(=O)c3c(N)n(C)c(=O)n(C)c3=O)nc3sc4c(c3c2=O)CCCC4)c(C)c1` as the compound, how does the Potency read?
A: Its Potency is inconclusive: 15.8 µM [inhibitor, single point].

Q: Which Potency does the source give for `Cc1cc(C)c(S(=O)(=O)NCC2CCC(C(=O)NCCCN3CCOCC3)CC2)c(C)c1` (centres undefined) here?
A: Its Potency is inconclusive: 3.16 µM [activator, partial curve].

Q: With `COc1ccc(Cl)cc1C(=O)NNC(=O)c1cccc(S(=O)(=O)N(C)C)c1` as the compound, how does the Potency read?
A: Its Potency is inconclusive: 17.8 µM [inhibitor, single point].

Q: Which Potency does the source give for `CC(=O)OCCN1C(=O)c2cccnc2C1=O` here?
A: Its Potency is inconclusive: 10 µM [activator, partial curve, poor fit].

Q: With `COC(=O)[C@@H]1CCCN1C(=O)CCc1nnc(CCC2CCCCC2)o1` as the compound, how does the Potency read?
A: Its Potency is inconclusive: 1.78 µM [activator, partial curve, poor fit].

Q: For `O=C(Nc1ccc(F)cc1F)c1c(C(F)(F)F)ccnc1Oc1ccccc1`, which Potency is on record?
A: The Potency was inconclusive: 15.8 µM [inhibitor, partial curve, poor fit].

Q: With `O=C(OCC(=O)N1CCN(C(=O)c2ccco2)CC1)c1c(Cl)cccc1Cl` as the compound, how does the “activity change, negative = inhibition” value read?
A: Its value is inactive: 22.8%.

Q: With `CCOC(=O)CC1N=NN=N1` as the compound, how does the “activity change, negative = inhibition” value read?
A: The value was inactive: 18.8% [at 46.1 µM].

Q: With `O=S(=O)(c1ccc(Br)c2nsnc12)N1CCOCC1` as the compound, how does the Potency read?
A: Its Potency is inconclusive: 12.6 µM [inhibitor, single point].

Q: With `NC(=S)COc1ccccc1` as the compound, how does the Potency read?
A: The Potency was inconclusive: 5.62 µM [inhibitor, single point].

Q: Which Potency does the source give for `Cc1ccc(C)c(OCc2cc(C(=O)N(C)Cc3nccn3C)no2)c1` here?
A: Its Potency is inconclusive: 35.5 µM [inhibitor, single point].

Q: Which Potency does the source give for `Cn1c(SCC(=O)Nc2ccccc2F)nnc1-c1cc2ccccc2o1` here?
A: The Potency was inconclusive: 23.1 µM [activator, single point].

Q: For `N#CC1CCCc2c1[nH]c1ccc([N+](=O)[O-])cc21` (centres undefined), which Potency is on record?
A: Its Potency is active: 10 µM.

Q: Which “activity change, negative = inhibition” value does the source give for `O=C(CNC(=O)Cc1ccccc1)N=Nc1c(O)[nH]c2ccccc12` here?
A: Its value is inactive: 2.44% [at 46.1 µM].

Q: Which “activity change, negative = inhibition” value does the source give for `COc1ccc(CCN2C(=O)c3[nH]nc(-c4ccccc4O)c3C2c2ccc(O)c(OC)c2)cc1` (centres undefined) here?
A: The value was inactive: -29.3% [at 46.1 µM].

Q: For `O=C(CCn1cnc(-c2ccccc2)c1-c1ccccc1)N/N=C/c1ccc(O)cc1`, which Potency is on record?
A: The Potency was inconclusive: 10.3 µM [inhibitor, partial curve].

Q: For `O=C(NCc1cccs1)c1ccc(Cl)c(S(=O)(=O)N2CCCC2)c1`, which Potency is on record?
A: Its Potency is inconclusive: 10 µM [inhibitor, partial curve, poor fit].
